In publication PMC9404779, “Oxidative Implications of Substituting a Conserved Cysteine Residue in Sugar Beet Phytoglobin BvPgb 1.2” (Antioxidants, 2022):
These are yes or no findings as the source states them, for the method shown.

Target: T1, Equine myoglobin (Mb) (equine), P68082
T1 chain: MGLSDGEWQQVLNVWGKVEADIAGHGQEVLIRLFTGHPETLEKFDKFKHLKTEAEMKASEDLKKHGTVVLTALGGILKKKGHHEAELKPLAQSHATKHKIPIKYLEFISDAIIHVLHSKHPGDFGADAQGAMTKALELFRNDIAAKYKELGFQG
Assay: SEC; analytical SEC, Superdex 75 10/300 GL, 50 mM NaP with 150 mM NaCl pH 7.0, 100 µL of 1 mg/mL protein; MW from retention volume on a calibration curve; dimer of monomers; both purified
Settings: remark: other sources report otherwise

B1: Equine myoglobin (Mb), P68082 1-154 (protein)
chain: T1 chain
binding: no binding (tested: 1 mg/mL)
